Laboratory results reported in doi:10.1101/578138.
Read-outs that look alike come from different tables or passages of the source. No constants are given. Whether binding was seen depends on the method and setting. In cells and extracts the contact can be indirect. Some results given as binding are weak or reduced against the parent protein; the word gives no strength. For some assays here: Where a sequence is shown, tags or fusion partners need not be part of it.

Amino acid sequences for entries named in this document (tags omitted). A change or cut given only in a name is not applied to a line headed by its entry. Residues count along the entry.
UniProt Q9ULZ3, whole entry: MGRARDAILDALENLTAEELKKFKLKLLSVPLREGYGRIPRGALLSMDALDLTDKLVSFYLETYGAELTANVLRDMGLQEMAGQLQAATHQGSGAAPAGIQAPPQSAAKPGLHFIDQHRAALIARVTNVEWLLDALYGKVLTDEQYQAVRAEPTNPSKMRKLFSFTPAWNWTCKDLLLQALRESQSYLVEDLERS
UniProt P11021, 19-654: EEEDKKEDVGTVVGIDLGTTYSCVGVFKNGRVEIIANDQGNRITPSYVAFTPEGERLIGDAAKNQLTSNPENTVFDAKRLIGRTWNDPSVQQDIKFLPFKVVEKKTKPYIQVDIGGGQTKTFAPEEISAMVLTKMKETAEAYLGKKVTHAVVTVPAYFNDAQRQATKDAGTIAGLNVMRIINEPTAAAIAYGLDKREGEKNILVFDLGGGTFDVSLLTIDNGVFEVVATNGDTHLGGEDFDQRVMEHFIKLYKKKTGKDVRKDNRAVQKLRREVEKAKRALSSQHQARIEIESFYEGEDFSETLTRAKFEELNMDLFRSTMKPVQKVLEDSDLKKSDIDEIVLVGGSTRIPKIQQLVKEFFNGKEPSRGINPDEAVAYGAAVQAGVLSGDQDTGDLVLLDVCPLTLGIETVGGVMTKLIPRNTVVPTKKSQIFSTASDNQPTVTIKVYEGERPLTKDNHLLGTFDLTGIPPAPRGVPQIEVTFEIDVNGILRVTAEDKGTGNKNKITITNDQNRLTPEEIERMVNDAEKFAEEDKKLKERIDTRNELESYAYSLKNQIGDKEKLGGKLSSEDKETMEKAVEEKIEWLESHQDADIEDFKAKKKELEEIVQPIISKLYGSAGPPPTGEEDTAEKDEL

What was measured:
GST-HSC70 (human) [1] = target: GST-HSC70 (human) (UniProt P11142); assay: pull-down
[2] = target: GST-SBD (substrate binding domain of HSC70, aa394-546) (human) (UniProt P11142); assay: pull-down
GST-HSC70 (human) [3] = target: GST-HSC70 (human) (UniProt P11142); assay: pull-down; remark: listed apart in the source
[4] = target: HA-ASC (apoptosis-associated speck-like protein containing a CARD) (UniProt Q9ULZ3); assay: co-IP
[5] = target: GFP-NLRC4 (WT-NLRC4) (human) (UniProt Q9NPP4); assay: co-IP
GFP-NLRC4-H443P (human) = GFP-NLRC4-H443P (human) (UniProt Q9NPP4); assay: co-IP
Myc-NLRC4-H443P (human) = Myc-NLRC4-H443P (human) (UniProt Q9NPP4); assay: co-IP
[6] = target: T1, GFP-aa91-253 (NBD of NLRC4) (human) (UniProt Q9NPP4); assay: co-IP
T1 sequence: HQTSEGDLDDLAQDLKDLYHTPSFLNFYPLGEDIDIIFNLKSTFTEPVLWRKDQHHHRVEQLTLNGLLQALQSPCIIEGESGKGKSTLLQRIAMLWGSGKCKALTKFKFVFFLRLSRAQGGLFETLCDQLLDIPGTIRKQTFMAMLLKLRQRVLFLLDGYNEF

GFP-NLRC4-T337S (human) = GFP-NLRC4-T337S (human) (UniProt Q9NPP4); assay: co-IP
Myc-NLRC4 (human) = Myc-NLRC4 (human) (UniProt Q9NPP4); assay: co-IP
GFP-NLRC4-V341A (human) = GFP-NLRC4-V341A (human) (UniProt Q9NPP4); assay: co-IP
[7] = target: T2, GFP-LRR (NLRC4 aa658-1024) (human) (UniProt Q9NPP4); assay: co-IP
T2 sequence: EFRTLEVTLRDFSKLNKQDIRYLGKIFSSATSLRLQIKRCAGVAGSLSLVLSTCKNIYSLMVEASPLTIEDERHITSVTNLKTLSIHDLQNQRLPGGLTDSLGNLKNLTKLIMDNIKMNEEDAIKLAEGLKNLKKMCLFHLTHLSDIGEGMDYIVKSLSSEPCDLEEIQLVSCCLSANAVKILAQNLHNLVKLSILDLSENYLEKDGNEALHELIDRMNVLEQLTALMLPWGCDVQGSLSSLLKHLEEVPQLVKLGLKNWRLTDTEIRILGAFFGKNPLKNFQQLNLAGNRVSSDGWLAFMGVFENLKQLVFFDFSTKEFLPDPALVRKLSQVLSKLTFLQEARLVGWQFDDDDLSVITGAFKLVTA

GFP-CARD (NLRC4) (human) = target: T3, GFP-CARD (NLRC4) (human) (UniProt Q9NPP4); assay: co-IP
T3 sequence: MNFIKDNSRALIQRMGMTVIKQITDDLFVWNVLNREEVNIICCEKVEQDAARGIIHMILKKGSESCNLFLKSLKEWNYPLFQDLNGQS

[8] = target: endogenous NLRC4 (differentiated THP1 cells) (human (endogenous in THP1)) (UniProt Q9NPP4); assay: co-IP

GFP-NLRC4 (WT-NLRC4) (from UniProt Q9NPP4 1-1024)
binding (GST-HSC70 (human) [1]): binds | binding [2]: binds

GFP-NLRC4-H443P (from UniProt Q9NPP4 1-1024)
binding (GST-HSC70 (human) [1]): binds | binding [2]: binds | binding (GST-HSC70 (human) [3]): binds weakly | binding [4]: binds

GRP78, endogenous in HEK293T (from UniProt P11021 19-654)
binding [5]: no binding | binding (GFP-NLRC4-H443P (human)): no binding

heat shock cognate protein 70 (HSC70), endogenous in HEK293T (from UniProt P11142 1-646)
binding [5]: binds | binding (Myc-NLRC4-H443P (human)): binds | binding [6]: binds | binding (GFP-NLRC4-T337S (human)): binds | binding (Myc-NLRC4 (human)): binds | binding (GFP-NLRC4-V341A (human)): binds | binding [7]: binds | binding (GFP-CARD (NLRC4) (human)): no binding | binding (GFP-NLRC4-H443P (human)): binds

heat shock cognate protein 70 (HSC70), endogenous in differentiated THP1 cells (from UniProt P11142 1-646)
binding [8]: binds

B1: GFP-LRR (NLRC4 aa658-1024) (domain or fragment, UniProt Q9NPP4 658-1024)
chain: EFRTLEVTLRDFSKLNKQDIRYLGKIFSSATSLRLQIKRCAGVAGSLSLVLSTCKNIYSLMVEASPLTIEDERHITSVTNLKTLSIHDLQNQRLPGGLTDSLGNLKNLTKLIMDNIKMNEEDAIKLAEGLKNLKKMCLFHLTHLSDIGEGMDYIVKSLSSEPCDLEEIQLVSCCLSANAVKILAQNLHNLVKLSILDLSENYLEKDGNEALHELIDRMNVLEQLTALMLPWGCDVQGSLSSLLKHLEEVPQLVKLGLKNWRLTDTEIRILGAFFGKNPLKNFQQLNLAGNRVSSDGWLAFMGVFENLKQLVFFDFSTKEFLPDPALVRKLSQVLSKLTFLQEARLVGWQFDDDDLSVITGAFKLVTA
binding (GST-HSC70 (human) [1]): binds

B2: GFP-aa91-253 (NBD of NLRC4) (domain or fragment, UniProt Q9NPP4 91-253)
chain: HQTSEGDLDDLAQDLKDLYHTPSFLNFYPLGEDIDIIFNLKSTFTEPVLWRKDQHHHRVEQLTLNGLLQALQSPCIIEGESGKGKSTLLQRIAMLWGSGKCKALTKFKFVFFLRLSRAQGGLFETLCDQLLDIPGTIRKQTFMAMLLKLRQRVLFLLDGYNEF
binding (GST-HSC70 (human) [1]): binds
